This passage reports cell number change and AC50 results from PubChem BioAssay AID2685 (National Center for Advancing Translational Sciences (NCATS), 2010).

This is one part of the list. The main result of the screen is listed elsewhere. These columns were measured beside it and carry no call. Most of these compounds were active or inconclusive in the main read-out, so they are no random draw. Potencies come from curve fits of mixed quality, noted in brackets.

The nature of the experiment: qHTS Assay for Lipid Storage Modulators in Drosophila S3 Cells.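 For cell number change: cells counted by Cell Tracker Red CMTPX staining in the red channel.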 As to conditions: BODIPY lipid droplet fluorescence, 18-24 h; for cell number change: measured here: cell count max response, cells fed with added oleic acid. An excerpt:
NIH Molecular Libraries Probe Production Centers Network [MLPCN] NIH Chemical Genomics Center [NCGC] MLPCN Grant: 1 R03 MH085686-01 Assay Submitter (PI): Beller, Mathias; Max-Planck-Institut fur Biophysikalische Chemie NCGC Assay Overview: Storing lipids as a reservoir for energy or the anabolism of elementary metabolites is a common feature of probably all cells and is conserved from bacteria to humans. The universal cellular lipid storage organelle is the so-called lipid storage droplet (LD). Although ubiquitous, LDs share a simple structure composed of a hydrophobic core that harbors the storage lipids, which is shielded by a droplet-specific phospholipid monolayer to which proteins are attached. The current model of LD biogenesis involves an incorporation of the lipid core into the membrane leaflets of the endoplasmic reticulum (ER) followed by a subsequent budding-like maturation of a LD, which ultimately pinches off. Once released, LD volume can increase by localized lipogenesis or fusion of existing droplet. Storage lipids are re-mobilized enzymatically by lipase activity. Lipase regulation in the adipocyte is heavily studied and involves multiple components including catecholamine signaling, the LD-associated proteins Perilipin and comparative gene identification (CGI-58) and at least two lipases named hormone sensitive lipase (HSL) and adipocyte triglyceride lipase (ATGL). LD regulation outside of the adipocyte is poorly understood and only few components are known. However, there is an urgent need to learn more about ectopic fat depots as mislocalized storage of lipids, for example in the liver or muscle, is an eminent health problem associated with insulin resistance or the metabolic syndrome. We developed a laser-scanning cytometer assay to enable 1,536-well screening and combined the results of the small molecules screen with an RNAi database based on lipid storage.
Triacsin C (Sigma-Aldrich T-4540), an inhibitor of long-chain fatty acyl CoA synthetase that blocks synthesis of triglycerides, was used as a positive control for lipid under-storage. A total of 23 nL of compound solution of different concentrations were transferred to the assay plates using a Kalypsys pin tool equipped with a 1,536-pin array containing 10-nL slotted pins (FP1S10, 0.457-mm diameter, 50.8 mm long; V&P Scientific). One microliter of oleic acid (400 uM) was added, and the plate was lidded with stainless steel rubber gasket lined lids containing pinholes. […] Fluorescence was detected by excitation of the fluorophores with a 488-nm laser on an Acumen Explorer (TTP Lab Tech). The total intensity in channel 2 (500-530 nm) reflected lipid droplet accumulation. Cells were detected using channel 3 (575-640 nm) with 5-um width and 100-um depth filters. The ratio of the number of objects in PMT channel 2 over the number of objects in PMT channel 3 was also calculated. Percent activity was computed relative to an internal control (100% inhibited lipid droplet deposition due to the presence of 20 uM Triacsin C), which was added to 32 wells/plate.

Setting [1] is: measured here: cell number channel AC50, cells fed with added oleic acid.
Where [2] appears, read: measured here: lipid fluorescence (Fed channel) AC50, cells fed with added oleic acid.

Turning to `O=C(CN1CCN(Cc2ccccc2)CC1)NCc1ccc(Cl)cc1`, the cell number change was -28%. For the same molecule, the AC50 under setting [1] was 58 nM [falling, full curve, poor fit]. As to `COc1cccc2c1OCC1COc3c(c(=O)n(C)c(=O)n3C)C21` (configuration not stated), the cell number change came to 18.6%. Moreover, under setting [1], the AC50 is 5.8 nM [rising, full curve, poor fit]. `O=C(NC(=S)NCCN1CCOCC1)c1ccc(Cl)cc1`: the cell number change was -8.35%. On to `CCn1c2ccccc2c2cc(NC(=O)C(=O)N3CCOCC3)ccc21`, for which the cell number change worked out at 0.716%. In addition, under setting [1], the AC50 is 116 nM [falling, partial curve, poor fit]. For the same molecule, the AC50 under setting [2] was 6510 nM [falling, single point]. With `CCOc1ccc2[nH]c3c(NCCC(C)C)ncnc3c2c1`, the AC50 was 92 nM [falling, partial curve, poor fit] under setting [1] and 20600 nM [falling, partial curve] under setting [2]. In the case of `CCOC(=O)c1c(C)n(C)c2cc(-c3ccc(C)cc3)c(O)cc12`, the cell number change was 2.98%. The AC50 under setting [2] is 820 nM [rising, full curve, poor fit]. On to `Cc1ccc(Nc2c3c(nc4ncnn24)CC(C)CC3)cc1` (configuration not stated), for which the cell number change worked out at 16.6%. In the case of `Cc1nc(Nc2ccc3c(c2)OCCO3)c2oc3ccccc3c2n1`, the cell number change came out at 18.4%. In addition, the AC50 under setting [1] is 116 nM [rising, partial curve, poor fit]. The AC50 under setting [2] is 461 nM [rising, partial curve].

For `COc1ccc(CCNC(=O)COc2ccc3c(C)cc(=O)oc3c2)cc1OC`, the cell number change amounted to 13.2%. Take `CC/C(=N/N=C(\CC)c1ccccc1)c1ccccc1`: the cell number change is -12.3%.

Regarding `O=C(NCCCc1ccccc1)c1cccc([N+](=O)[O-])c1`, the cell number change stood at 7.09%. In addition, the AC50 under setting [2] was 29100 nM [rising, single point]. For `CCOc1ccc(N(CC(=O)NCc2ccccc2)C(=O)Cn2nnc(-c3ccc(C)o3)n2)cc1`, the cell number change was 18.9%. Moreover, the AC50 under setting [2] was 6510 nM [rising, single point]. As to `O=C(NCc1ccc(Cl)cc1)c1ncn[nH]1`, the cell number change is -36.9%. For `S=C(Nc1ccccc1)Nc1ccc(Br)cn1`, the cell number change was found to be 13.8%. The AC50 under setting [2] was 651 nM [rising, full curve, poor fit].

On to `C=CCNC(=O)CCC(=O)NNc1nc2ccccc2c2nc(-c3ccccc3)nn12`, for which the cell number change is -6.13%.

With `Cc1ccc(NC(=O)OC(C)CNC(=O)Oc2cccc(C)c2)cc1` (configuration not stated), the cell number change was -25.9%. Besides, the AC50 under setting [1] was 411 nM [rising, single point]. Consider `CCCCOC(=O)Cn1c(=O)n(CC(=O)OCCCC)c2cc(C)ccc21`, for which the AC50 is, setting by setting: under setting [1], 2590 nM [rising, partial curve]; under setting [2], 18400 nM [rising, partial curve]. In the case of `c1ccc(CCNc2ncnc3sccc23)nc1`, the AC50 reads like this: under setting [1], 5.17 nM [rising, full curve, poor fit]; under setting [2], 4.61 nM [rising, full curve, poor fit]. On to `Cc1ccc(OCCSc2cc(C)nc(N)n2)cc1`, for which the cell number change was -30.6%. In addition, the AC50 under setting [1] was 32600 nM [falling, single point]. The AC50 under setting [2] was 6510 nM [rising, partial curve, poor fit]. With `COc1ccc(OC)c(NC(=O)CC2Oc3ccccc3NC2=O)c1` (configuration not stated), the cell number change amounted to 20%. Also, the AC50 under setting [2] was 5800 nM [rising, full curve, poor fit]. In the case of `CC(=O)N1CCc2cc(C(=O)CN3CCCN(Cc4ccc(F)cc4)C3)ccc21`, the cell number change was -21.9%. Besides, the AC50 under setting [2] is 32.6 nM [falling, full curve, poor fit]. On to `Cc1ccc(NCc2cccnc2)c(Br)c1`, for which the cell number change turned out to be 31.6%. For the same molecule, under setting [1], the half-maximal activity concentration (AC50) was 10300 nM [rising, partial curve]. The concentration at half-maximal activity (AC50) under setting [2] is 23100 nM [rising, single point]. As to `COc1nc2ccccc2c(=O)n1OCC(C)C`, the cell number change was 44.3%. Further, the AC50 under setting [1] is 18400 nM [rising, partial curve, poor fit]. Take `COc1cc(SC)ccc1C(=O)OCC(=O)N1CCCC1`: the cell number change is -9.72%.

Take `COc1ccc(C(=O)Nc2ccc(S(=O)(=O)NCc3ccco3)cc2)cc1OC`: the cell number change is -1.17%. Consider `CC(NCCC(Cc1ccccc1)c1ccco1)c1ccccc1` (configuration not stated), for which the cell number change is -12.3%. In addition, the AC50 under setting [2] was 651 nM [rising, single point]. With `O=C(c1ccccc1)C(Nc1ccccn1)c1ccccc1` (configuration not stated), the cell number change was 1.33%. Under setting [1], the AC50 was 651 nM [falling, single point]. Regarding `CC(C)C[C@H](NC(=O)N1CC(=O)Nc2ccccc21)C(=O)N[C@H](Cc1ccccc1)C(=O)O`, the cell number change worked out at 12%. Take `CSc1ccccc1NC(=O)CN1CCCCC1`: the cell number change is 43.6%. The AC50 under setting [1] was 6510 nM [rising, partial curve, poor fit]. In the case of `C=CCn1c(=N)c(C(=O)OC)cc2c(=O)n3cccc(C)c3nc21`, the cell number change worked out at 18.7%. As to `O=C(CNC(=O)c1ccc(=O)[nH]c1)Nc1ccc(F)c(F)c1`, the cell number change came to 21.2%. For the same molecule, under setting [2], the AC50 is 11600 nM [rising, single point]. On to `Cc1[nH]c2ccc(F)cc2c1CCN(Cc1cccnc1)C(=S)Nc1ccc(F)cc1`, for which the concentration at half-maximal activity (AC50) under setting [2] was 116 nM [rising, full curve, poor fit].
